This list holds what a sample rich in strong results left over.
Tests used:
[1] = test system: HCoV-229E; design: species or system Huh-7; HTS, protection from HCoV-229E induced cell death, luminescent cell viability (CellCounting-Lite 2.0), inhibition rate; conditions: 24 h post infection, 1 h compound pre-incubation; 10 µM; inhibitor
[2] = test system: HCoV-OC43; design: species or system RD; HTS, protection from HCoV-OC43 induced cell death, luminescent cell viability (CellCounting-Lite 2.0), inhibition rate; conditions: 24 h post infection, 1 h compound pre-incubation; 10 µM; inhibitor

Cc1ccc2nc(C)ccc2c1 [2,6-Dimethylquinoline]
229E Inhibition rate [1]: 36% | OC43 Inhibition rate [2]: 0%

Source: PMC12431657, “Discovery and mechanistic insights of dibenzoylmethane as a broad spectrum inhibitor of coronavirus” (PLOS Pathogens, 2025)
